Reference: PubChem BioAssay AID1487 (National Center for Advancing Translational Sciences (NCATS), 2009)
“And” between values parts separate entries of the source, which are not always exact repeats. Equal values may be shown once. The list shows a part of the results. Further columns of the screen follow, without active or inactive calls. Compounds called inactive in the main read-out are mostly missing here. The note in brackets gives the kind of curve behind each potency; many fits are weak.

Test: qHTS Assay for Modulators of Lamin A Splicing
Conditions: HeLa LMNA splicing GFP/RFP minigene ratio, 48 h
In short: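 S3 HeLa stable clones carrying a lamin A-EGFP splicing minigene plus DsRed2 were seeded at 600 cells/well in Opti-MEM with 2% FBS, pin-dosed and incubated 48 h at 37°C. Acumen cytometry (488 nm) gave the GFP/RFP total-intensity ratio.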

[1] = measured here: RFP viability control channel
[2] = measured here: GFP splicing reporter channel

Row | Structure (SMILES) | AC50 [1] | AC50 [2]
1 | CCCn1nc(Oc2nc(NC(C)C)nc(N(C)C)n2)ccc1=O | 0.00891 µM [falling, full curve, poor fit] | 
2 | CCCC(=O)O[C@]1(C(=O)CO)CCC2[C@@H]3CCC4=CC(=O)CC[C@]4(C)C3C(O)C[C@]21C (some centres not stated) | 35.5 µM [falling, single point] | 3.16 µM [falling, partial curve, poor fit]
3 | Cc1cccc(N(C)C(=S)Oc2ccc3ccccc3c2)c1 | 14.1 µM [falling, single point] and 35.5 µM [rising, single point] | 1.26 nM [falling, full curve, poor fit] and 31.6 nM [falling, full curve, poor fit]
4 | CC(C)NC(=O)c1ccccc1NC(=O)C1COc2ccccc2O1 (configuration not stated) | 31.6 µM [rising, single point] | 31.6 µM [rising, single point]
5 | COc1ccc(Nc2ccc(S(=O)(=O)N3CCCCC3)cc2[N+](=O)[O-])cc1 | 12.6 µM [rising, partial curve] | 12.6 µM [rising, single point]
6 | CCOC(=O)c1[nH]c2ccc(OC)cc2c1NS(=O)(=O)c1ccc(Cl)s1 | 35.5 µM [rising, single point] | 25.1 µM [rising, single point]
7 | CCc1nnc(NC(=O)CSc2nc3c(c(=O)n2C)SC(C)C3)s1 (configuration not stated) | 35.5 µM [rising, single point] | 
8 | O=C1CN(c2ccc(Br)cc2)C(=O)N1CC(=O)N1CCCc2ccccc21 | 15.8 µM [rising, partial curve] | 11.2 µM [rising, partial curve, poor fit]
9 | CCCCC/C=C\C/C=C\CCCCCCCC(=O)O | 0.178 µM [rising, full curve] | 
10 | COc1ccc(N2CCN(C(=O)CCCSc3nc4ccccc4[nH]3)CC2)cc1 | 17.8 µM [rising, single point] | 12.6 µM [rising, single point]
11 | COc1cc(C2c3c(-c4cc(C)cc(C)c4O)n[nH]c3C(=O)N2CCCO)cc(OC)c1OC (configuration not stated) |  | 31.6 µM [rising, single point]
12 | CC(C)(C)NC(=O)NC(=O)COC(=O)Cn1cnc2ccccc2c1=O | 20 µM [falling, single point] | 
13 | O=C(CSc1nnc(NC(=O)C2CC2)s1)Nc1ccc2c(c1)OCCO2 | 2.82 µM [falling, partial curve, poor fit] | 
14 | CNC(=O)CCSSCCC(=O)NC | 8.91 µM [falling, partial curve, poor fit] | 8.91 µM [falling, partial curve, poor fit]

A draw from above in order of molecular weight, descending.
Row | Structure (SMILES) | AC50 [1] | AC50 [2]
2 | CCCC(=O)O[C@]1(C(=O)CO)CCC2[C@@H]3CCC4=CC(=O)CC[C@]4(C)C3C(O)C[C@]21C (some centres not stated) | 35.5 µM [falling, single point] | 3.16 µM [falling, partial curve, poor fit]
5 | COc1ccc(Nc2ccc(S(=O)(=O)N3CCCCC3)cc2[N+](=O)[O-])cc1 | 12.6 µM [rising, partial curve] | 12.6 µM [rising, single point]
14 | CNC(=O)CCSSCCC(=O)NC | 8.91 µM [falling, partial curve, poor fit] | 8.91 µM [falling, partial curve, poor fit]
